Reference: publication PMC10803263, “General transcription factor from Escherichia coli with a distinct mechanism of action” (Nature Structural & Molecular Biology, 2023)
Results are given in words; binding and its absence hold for the method and conditions named. Binding seen in cells or lysates may run through a third protein. Here binding means that the protein was enriched with, or labelled near, the bait; the list need not be complete.

The chains behind the UniProt entries cited, without tags or fusion partners.
UniProt P0AE60: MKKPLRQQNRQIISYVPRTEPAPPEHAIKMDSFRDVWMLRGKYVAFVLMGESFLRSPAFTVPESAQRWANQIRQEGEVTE
UniProt P0A8T7: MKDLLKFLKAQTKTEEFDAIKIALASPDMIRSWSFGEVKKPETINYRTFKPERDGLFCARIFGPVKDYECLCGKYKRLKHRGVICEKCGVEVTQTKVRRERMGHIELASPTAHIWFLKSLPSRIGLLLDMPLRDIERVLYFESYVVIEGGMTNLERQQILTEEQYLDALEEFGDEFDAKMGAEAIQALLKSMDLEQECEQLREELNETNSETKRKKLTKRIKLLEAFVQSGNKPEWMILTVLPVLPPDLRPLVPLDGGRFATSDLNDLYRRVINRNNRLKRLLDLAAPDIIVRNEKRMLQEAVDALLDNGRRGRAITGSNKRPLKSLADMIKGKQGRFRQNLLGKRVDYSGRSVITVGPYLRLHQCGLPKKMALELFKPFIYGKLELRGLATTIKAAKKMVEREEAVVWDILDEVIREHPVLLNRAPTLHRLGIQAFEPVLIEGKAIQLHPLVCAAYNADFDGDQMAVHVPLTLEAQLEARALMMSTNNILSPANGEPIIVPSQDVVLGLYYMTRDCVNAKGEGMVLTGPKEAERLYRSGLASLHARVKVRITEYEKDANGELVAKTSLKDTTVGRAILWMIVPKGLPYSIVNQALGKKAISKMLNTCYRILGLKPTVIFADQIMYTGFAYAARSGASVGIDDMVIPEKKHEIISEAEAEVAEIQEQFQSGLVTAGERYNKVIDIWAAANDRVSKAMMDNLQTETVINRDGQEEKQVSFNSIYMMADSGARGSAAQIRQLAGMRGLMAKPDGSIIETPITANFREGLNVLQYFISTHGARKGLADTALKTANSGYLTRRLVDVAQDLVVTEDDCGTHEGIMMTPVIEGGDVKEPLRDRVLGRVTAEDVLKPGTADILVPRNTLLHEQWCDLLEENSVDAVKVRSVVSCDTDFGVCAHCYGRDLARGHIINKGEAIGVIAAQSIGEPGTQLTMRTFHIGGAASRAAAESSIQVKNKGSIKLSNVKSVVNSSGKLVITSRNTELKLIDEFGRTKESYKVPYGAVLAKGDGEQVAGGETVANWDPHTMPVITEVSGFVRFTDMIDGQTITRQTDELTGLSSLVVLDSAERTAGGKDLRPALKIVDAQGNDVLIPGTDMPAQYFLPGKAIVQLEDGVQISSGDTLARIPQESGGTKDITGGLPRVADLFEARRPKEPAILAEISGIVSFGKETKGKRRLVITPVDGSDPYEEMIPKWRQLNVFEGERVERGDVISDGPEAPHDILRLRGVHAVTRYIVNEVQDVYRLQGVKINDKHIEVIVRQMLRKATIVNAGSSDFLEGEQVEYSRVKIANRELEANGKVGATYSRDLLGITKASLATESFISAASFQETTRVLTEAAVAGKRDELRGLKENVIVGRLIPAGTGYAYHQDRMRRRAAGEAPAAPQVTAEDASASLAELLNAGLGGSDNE

Assays:
[1] = biological target: CedA, chromosomally 3× FLAG-tagged (E. coli (endogenous in MG1655)) (UniProt P0AE60); experiment: affinity purification with mass spectrometry; in vivo crosslinking with 0.3% formaldehyde for 10 min; chromosomally 3× FLAG-tagged bait (RpoC or CedA) captured on anti-DYKDDDDK magnetic agarose, washed with 500 mM NaCl, 0.1% Triton X-100; on-beads trypsin digestion, LC-MS; proteins ranked by abundance, specificity (against untagged strain) and enrichment (against lysate), top 2% combined rank, three replicates
[2] = biological target: RNA polymerase β′ subunit (RpoC), chromosomally 3× FLAG-tagged (E. coli (endogenous in MG1655)) (UniProt P0A8T7); experiment: as above

binding [1] | binding [2] | Binder
binds | – | stringent starvation protein A (SspA), endogenous (protein, UniProt P0ACA3 1-212) MAVAANKRSVMTLFSGPTDIYSHQVRIVLAEKGVSFEIEHVEKDNPPQDLIDLNPNQSVPTLVDRELTLWESRIIMEYLDERFPHPPLMPVYPVARGESRLYMHRIEKDWYTLMNTIINGSASEADAARKQLREELLAIAPVFGQKPYFLSDEFSLVDCYLAPLLWRLPQLGIEFSGPGAKELKGYMTRVFERDSFLASLTEAEREMRLGRS
– | binds | sigma factor FecI, endogenous (protein, UniProt P23484 1-173) MSDRATTTASLTFESLYGTHHGWLKSWLTRKLQSAFDADDIAQDTFLRVMVSETLSTIRDPRSFLCTIAKRVMVDLFRRNALEKAYLEMLALMPEGGAPSPEERESQLETLQLLDSMLDGLNGKTREAFLLSQLDGLTYSEIAHKLGVSISSVKKYVAKAVEHCLLFRLEYGL
